# Data reported in PubChem BioAssay AID1671190 (National Center for Advancing Translational Sciences (NCATS), 2021).
# Amino acid sequences for entries named in this document (tags omitted). A change or cut given only in a name is not applied to a line headed by its entry.
# UniProt P18054: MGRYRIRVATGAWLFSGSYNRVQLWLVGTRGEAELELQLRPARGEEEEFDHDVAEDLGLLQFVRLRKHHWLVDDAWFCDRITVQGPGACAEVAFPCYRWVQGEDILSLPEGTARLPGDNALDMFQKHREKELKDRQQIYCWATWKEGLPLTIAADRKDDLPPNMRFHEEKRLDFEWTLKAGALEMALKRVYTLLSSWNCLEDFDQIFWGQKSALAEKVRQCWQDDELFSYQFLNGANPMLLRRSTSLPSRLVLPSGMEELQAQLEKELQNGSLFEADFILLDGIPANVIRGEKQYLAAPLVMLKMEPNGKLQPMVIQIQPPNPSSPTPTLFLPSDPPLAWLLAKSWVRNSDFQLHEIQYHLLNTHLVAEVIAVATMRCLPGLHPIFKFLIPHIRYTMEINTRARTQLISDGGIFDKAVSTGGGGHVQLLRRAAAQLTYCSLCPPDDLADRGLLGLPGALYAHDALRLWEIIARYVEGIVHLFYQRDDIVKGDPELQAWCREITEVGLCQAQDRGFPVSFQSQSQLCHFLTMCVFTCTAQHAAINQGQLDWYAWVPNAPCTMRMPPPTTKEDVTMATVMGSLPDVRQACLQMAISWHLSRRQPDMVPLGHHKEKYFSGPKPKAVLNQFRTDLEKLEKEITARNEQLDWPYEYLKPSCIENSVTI
# Among all 580,000 compounds or so, about 6,100 (1.1%) were called active. The inconclusive results got no clear call from the source; some entries with a clear call stand among them for comparison. Calls come from the whole dose curve; as a rule, active = well fitted inhibition curve with a large enough effect; inconclusive = small, poorly fitted or top-dose-only effect, or another doubt; inactive = no such curve, though single readings can be large or run the other way. Potencies beside an inconclusive call are fits to weak or partial responses and may not hold up.
# Molecular target: Polyunsaturated fatty acid lipoxygenase ALOX12 (Homo sapiens) (UniProt P18054)
# Assay: Primary qHTS assay for inhibitors of human arachidonate 12S-lipoxygenase (ALOX12): Round 2
# Conditions: purified 12hLO, xylenol orange hydroperoxide absorbance; activity change, negative = inhibition: at 108 µM (top of the series) unless noted
# Summary of the method: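 Purified human 12hLO at 150 nM in 25 mM Hepes, 0.01% Triton X-100, pH 7.0, preincubated 15 min at room temperature with compound. Reaction started with 40 uM arachidonic acid, 30 min at room temperature. Hydroperoxide measured by Fe-xylenol orange, 573/405 nm absorbance ratio.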
# % is set by controls: 0 for no effect and ±100 for the full control effect; potency is the fitted concentration of half-maximal effect.
Compound,Potency,"activity change, negative = inhibition"
Nc1nonc1-c1nc2ccccc2n1Cc1ccc(Cl)cc1,"inconclusive: 7.94 µM [inhibitor, full curve]",
COc1ccccc1OC(C(=O)NC1CC1)c1ccccc1 (stereo unspecified),"inconclusive: 44.7 µM [inhibitor, partial curve, poor fit]",
CCCCCCCCN1C(=O)[C@H](CC(=O)NCCCC)C[C@@]2(C(=O)OC)CC(C)(C)CC=C12,"inconclusive: 70.8 µM [inhibitor, partial curve, poor fit]",
COc1cc(CN(C)CC2CCCN(CCc3cccc(C(F)(F)F)c3)C2)ccc1O (stereo unspecified),"inconclusive: 63.1 µM [inhibitor, partial curve, poor fit]",
O=C(CSc1oc(-c2ccc(F)cc2)nc1S(=O)(=O)c1ccc(Cl)cc1)c1ccccc1,"inconclusive: 31.6 µM [inhibitor, single point]",
COC(=O)C1=CN(c2ccc(OC)cc2)C(N)=C(C#N)C1c1ccccc1F (stereo unspecified),"inconclusive: 44.7 µM [inhibitor, partial curve, poor fit]",
CCOc1ccc(OCC)c(Nc2cc(C)nc3nc(C)nn23)c1,"inconclusive: 31.6 µM [inhibitor, single point]",
O=c1[nH]cc(S(=O)(=O)Nc2ccc3c(c2)OCO3)c(=O)[nH]1,"inconclusive: 31.6 µM [inhibitor, single point]",
CC(=O)N=c1sc2nc3ccccc3nc2n1N(C(C)=O)C(C)=O,"inconclusive: 35.5 µM [inhibitor, partial curve, poor fit]",
CNC(=O)[C@@H]1C[C@H](n2cc(-c3ccc(CN4CC[C@@H](O)C4)cc3)nn2)CN1,"inconclusive: 8.91 µM [inhibitor, full curve, poor fit]",
COc1ccc(NC(=O)/C(C#N)=C/c2ccc(Br)o2)cc1,"inconclusive: 44.7 µM [inhibitor, partial curve, poor fit]",
CC(C)=NNc1nc(-c2ccccc2)cs1,"inconclusive: 79.4 µM [inhibitor, single point]",
COc1cc(O)c(C(=O)O)c(CCc2ccccc2)c1,"inconclusive: 0.562 µM [inhibitor, full curve, poor fit]",
CC(=O)N1N=C(c2ccc([N+](=O)[O-])cc2)CC1c1ccccc1Cl (stereo unspecified),"inconclusive: 50.1 µM [inhibitor, partial curve, poor fit]",
COC[C@@H]1CCCN1c1ncnc2c1CN(C1CCCNCC1)C(=O)CN2C (stereo partly specified),,inactive: -18.3% [at 6.33 µM]
CCN1CCN(C(=O)/C=C/c2c(F)cccc2Cl)CC1,"inconclusive: 63.1 µM [inhibitor, partial curve, poor fit]",

# Part of the list above, with bars between the fields:
Compound | Potency | activity change, negative = inhibition
O=c1[nH]cc(S(=O)(=O)Nc2ccc3c(c2)OCO3)c(=O)[nH]1 | inconclusive: 31.6 µM [inhibitor, single point] | 
CC(=O)N=c1sc2nc3ccccc3nc2n1N(C(C)=O)C(C)=O | inconclusive: 35.5 µM [inhibitor, partial curve, poor fit] | 
